{
  "sequences": {"note": "Amino acid sequences for entries named in this document (tags omitted).", "UniProt P07356": "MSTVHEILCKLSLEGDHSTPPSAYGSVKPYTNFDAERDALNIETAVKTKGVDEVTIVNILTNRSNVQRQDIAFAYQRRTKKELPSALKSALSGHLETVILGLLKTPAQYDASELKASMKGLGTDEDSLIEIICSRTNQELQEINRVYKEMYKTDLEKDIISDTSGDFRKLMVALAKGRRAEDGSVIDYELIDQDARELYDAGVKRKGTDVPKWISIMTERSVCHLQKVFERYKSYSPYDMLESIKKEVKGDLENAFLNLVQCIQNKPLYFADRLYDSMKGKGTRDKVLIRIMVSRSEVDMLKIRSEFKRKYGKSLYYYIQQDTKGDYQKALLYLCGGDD"},
  "source": "paper PMC4106853",
  "molecules": {"B1": {"name": "Pmel-17 (protein, UniProt Q60696 24-626)", "chain": "EGSRNQDWLGVPRQLVTKTWNRQLYPEWTEVQGSNCWRGGQVSLRVINDGPTLVGANASFSIALHFPGSQKVLPDGQVIWANNTIINGSQVWGGQPVYPQEPDDACVFPDGGPCPSGPKPPKRSFVYVWKTWGKYWQVLGGPVSRLSIATGHAKLGTHTMEVTVYHRRGSQSYVPLAHASSTFTITDQVPFSVSVSQLQALDGETKHFLRNHPLIFALQLHDPSGYLAEADLSYTWDFGDGTGTLISRALDVTHTYLESGSVTAQVVLQAAIPLVSCGSSPVPGTTDGYMPTAEAPGTTSRQGTTTKVVGTTPGQMPTTQPSGTTVVQMPTTEVTATTSEQMLTSAVIDTTLAEVSTTEGTGTTPTRPSGTTVAQATTTEGPDASPLLPTQSSTGSISPLLDDTDTIMLVKRQVPLDCVLYRYGSFSLALDIVQGIESAEILQAVPFSEGDAFELTVSCQGGLPKEACMDISSPGCQPPAQRLCQSVPPSPDCQLVLHQVLKGGSGTYCLNVSLADANSLAVASTQLVVPGQDGGLGQAPLLVGILLVLVAVVLASLIHRHRLKKQGSVSQMPHGSTHWLRLPPVFRARGLGENSPLLSGQQV"}, "B2": {"name": "Glycoprotein non-metastatic protein B (GPNMB) (protein, UniProt Q99P91 23-574)", "chain": "KRFRDVLGHEQYPDHMREHNQLRGWSSDENEWDEHLYPVWRRGDGRWKDSWEGGRVQAVLTSDSPALVGSNITFVVNLVFPRCQKEDANGNIVYEKNCRNDLGLTSDLHVYNWTAGADDGDWEDGTSRSQHLRFPDRRPFPRPHGWKKWSFVYVFHTLGQYFQKLGRCSARVSINTVNLTAGPQVMEVTVFRRYGRAYIPISKVKDVYVITDQIPVFVTMSQKNDRNLSDEIFLRDLPIVFDVLIHDPSHFLNDSAISYKWNFGDNTGLFVSNNHTLNHTYVLNGTFNLNLTVQTAVPGPCPPPSPSTPPPPSTPPSPPPSPLPTLSTPSPSLMPTGYKSMELSDISNENCRINRYGYFRATITIVEGILEVSIMQIADVPMPTPQPANSLMDFTVTCKGATPMEACTIISDPTCQIAQNRVCSPVAVDGLCLLSVRRAFNGSGTYCVNFTLGDDASLALTSTLISIPGKDPDSPLRAVNGVLISIGCLAVLVTMVTILLYKKHKAYKPIGNCPRNTVKGKGLSVLLSHAKAPFFRGDQEKDPLLQDKPRTL"}},
  "note": "Results are given in words; binding and its absence hold for the method and conditions named. Binding seen in cells or lysates may run through a third protein. These calls come from enrichment with a bait or labelling near it, and not all partners need be listed.",
  "data": [
    {"target": "T1, HTF-Rab27a^WT (rat) (UniProt P23640)", "T1 sequence": "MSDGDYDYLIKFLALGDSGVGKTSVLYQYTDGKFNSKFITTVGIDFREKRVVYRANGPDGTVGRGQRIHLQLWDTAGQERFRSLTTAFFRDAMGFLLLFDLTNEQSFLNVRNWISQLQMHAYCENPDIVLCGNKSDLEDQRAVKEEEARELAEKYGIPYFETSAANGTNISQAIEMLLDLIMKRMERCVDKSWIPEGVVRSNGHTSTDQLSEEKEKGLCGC", "experiment": "affinity purification with mass spectrometry; tandem affinity purification of HTF-Rab27a from 1% CHAPS S100 of stable melan-ash2 lines (anti-HA IP, TEV cleavage, anti-FLAG IP, FLAG peptide elution), Buffer A (50 mM Tris pH 7.5, 150 mM NaCl, 5 mM MgCl2, 1 mM DTT) with CHAPS, 4°C; nano-LC mass spectrometry; untransfected melan-ash2 as control", "values": [
      {"molecule": "Annexin A2 (Anxa2) (from UniProt P07356 1-339)", "binding": "binds"},
      {"molecule": "B1", "binding": "binds"},
      {"molecule": "B2", "binding": "binds"}
    ]}
  ]
}
